Source: patent publication US20090221702A1, “COMPOUNDS” (priority 2005, published 2009)
For at least one compound, name, drawing or mass did not settle the structure.

Test system: PKB
Test: Immunofluorescence microscopy with phospho-specific Ser473 PKB antibody in NIH 3T3 or Cos6 fibroblasts
Assay type: cell-based
Conditions: 100 μM for 30 min; data not shown
Experimental: We therefore tested the compound's effect on PKB S473 phosphorylation by immunofluorescence microscopy with a phospho-specific PKB antibody.
NIH 3T3 of Cos6 fibroblasts growing on PLL coated coverslips in DMEM containing 10% FCS were starved for 24 hours. Stimulation with c48/80 [10 μg/ml] was always carried out in the presence of 1% FCS for 10 min. Whereas cells growing in DMEM completely depleted of serum were used for experiments with cQ [15 μg/ml]. Where indicated, cells were pretreated with 100 μM LY294002 for 30 min or 500 nM RV001 for 15 min. After treatment cells were washed with PBS, fixed with 4% PFA and permeabilised with 0.25% Triton-X/PBS and washed extensively. After blocking in 1% BSA, cells were phalloidin stained and/or incubated with phospho-specific Ser473 PKB antibody (Cell Signalling) at 4° C. over night and a Fluorescein (FITC)—conjugated goat anti-mouse IgG (Jackson Immuno Research) at room temperature for 1 h. Nuclei were stained with Dapi. Coverslips were mounted on Mowiol containing slides and sealed before analysing on a Nikon Microscope.

For `O=c1cc(N2CCOCC2)oc2c(-c3ccccc3)cccc12` [LY294002, reference compound], the “effect on phosphorylation induced by c48/80 in 1% serum or by 10% serum alone” value was “blocking phosphorylation”.
